The list shows a part of the results. Some salts or complexes appear as unconnected parts, following the source record.
Experiments:
Assay in all cases: Primary Screen for Target Class Profiling of Small Molecule Inhibitors of Methyltransferases
[1] = molecular target: Glycine N-methyltransferase (Homo sapiens) (UniProt Q14749); conditions: purified enzyme, MTase-Glo SAH luminescence; measured here: GNMT inhibition; at 40 µM; stronger effect = lower value
Text: (§1) PI: Matthew D. Hall Ph.D. and Quinlin M. Hanson Ph.D.
(§2) National Center for Advancing Translational Sciences (NCATS)
(§3) National Institute of Health (NIH), Rockville, MD
(§4) Target class profiling (TCP) is a chemical biology approach amenable to investigating understudied biological targets. TCP is achieved by developing a generalizable assay platform and applying it to screen a curated set of compound libraries against representative members of a target class. Small molecule methyltransferases (SMMTase) are a subclass of methyltransferase that act on metabolites to modulate signaling pathways, metabolize xenobiotics, or balance the available methyl pool. We screened four curated libraries totaling 27,574 unique compounds against the SMMTases nicotinamide N-methyltransferase (NNMT), phenylethanolamine N-methyltransferase (PNMT), histamine N-methyltransferase (HNMT), glycine N-methyltransferase (GNMT), catechol O-methyltransferase (COMT), and guanidinoacetate N-methyltransferase (GAMT). The data generated by this TCP can be leveraged for informed tool molecule development. For example, in the associated publication we identified a chemotype of HNMT-selective inhibitors. Additionally, we identified a putative SMMTase-selective inhibitor with potential as a tool molecule for studying broader methyltransferase biology.
(§5) High-through put screening assays were developed at the National Center for Advancing Translational Science (NCATS) for the enzymes NNMT, PNMT, HNMT, GNMT, COMT, and GAMT. Enzymatic activity was measured as a function of SAM cofactor conversion using the MTase Glo kit (Promega) for all enzymes. All assays were performed in 1536-well format with substrates and SAM concentrations at KM values. Enzyme concentration and assay timing were optimized for 10-20% SAM conversion. Initial screening of 27,574 compounds was done as single-point assays using the highest compound concentration (40 uM). […] These compounds were replated in 11-point dose response and assayed against NNMT, PNMT, HNMT, GNMT, COMT, GAMT, and a counter-assay. The IC50 and efficacy (maximal response) values were determined for each dose-response curve. These values are also accounted for in the area under the curve (AUC) values.
(§6) PROTOCOL TABLE (as described by Inglese J, Shamu CE and Guy RK. 2007)
(§7) SEQUENCE No. (e.g., 1, 2, 3, etc.); […] (e.g., Cells, Incubation, Reagent, etc.); VALUE; DESCRIPTION.
(§8) 1; Reagent; 2 uL; SMMTase Enzyme (2x) in reaction buffer, columns 1- 48.
(§9) 2; Reagent; 1 uL; SAM (4x) in reaction buffer, columns 1-48.
(§10) 3; Controls; 23 nL; DMSO in column 4; sinefungin in DMSO (0 uM - 40 uM) in 7-point 1:2 dilution series (n = 2) in column 2.
(§11) 4; Compounds; 23 nL; Columns 5-48.
(§12) 5; Reagent; 1 uL; Substrate (4x) in reaction buffer, columns 2-48.
(§13) 6; Time; 20-30 min; Incubation.
(§14) 7; Reagent; 1 uL; MTase-Glo reagent (5X), columns 1-48.
(§15) 8; Time; 30 min; Incubation.
(§16) 9; Reagent; 5 uL; MTase-Glo Detection reagent, columns 1-48.
(§17) 10; Time; 30 min; Incubation, luminescence evolution.
(§18) 11; Detection; Luminescence; ViewLux uHTS Microplate Imager (PerkinElmer).
(§19) NOTES (numbers refer to Sequence numbers above)
(§20) 1, 2, 5. White Medium Binding Greiner 1536-well plates (Cat #789175-F, Greiner Bio-One, Monroe, NC); Reaction buffer: 50 mM Tris, pH 8.0, 3 mM MgCl2, 1 mM EDTA, 50 mM NaCl, 1 mM DTT, and 0.1 mg/mL BSA. Evaporation was prevented by covering assay plates with metal lids containing holes to allow gas diffusion.
(§21) 1. Six SMMTase were profiled: HNMT, GNMT, PNMT, COMT, NNMT, GAMT
(§22) 5. The corresponding substrate was used for each enzyme: HNMT - 5.3 uM Histamine; GNMT - >500 uM Glycine; PNMT - 16.2 uM Norephinephrine; COMT - 13.7 uM Norephinephrine; NNMT - 3.8 uM Nicotinamide; GAMT - 2.5 uM Guanidinoacetate.6, 8, 10. Room temperature
(§23) 6. Final reaction conditions: 10 nM COMT, 5 uM SAM, 15 uM norepinephrine, 50 mM Tris, pH 8.0, 3 mM MgCl2, 1 mM EDTA, 50 mM NaCl, 1 mM DTT, and 0.1 mg/mL BSA; refer to tables 2 and S1 for specific timing.
8. […]

The chains behind the UniProt entries cited, without tags or fusion partners.
UniProt Q14749, whole entry: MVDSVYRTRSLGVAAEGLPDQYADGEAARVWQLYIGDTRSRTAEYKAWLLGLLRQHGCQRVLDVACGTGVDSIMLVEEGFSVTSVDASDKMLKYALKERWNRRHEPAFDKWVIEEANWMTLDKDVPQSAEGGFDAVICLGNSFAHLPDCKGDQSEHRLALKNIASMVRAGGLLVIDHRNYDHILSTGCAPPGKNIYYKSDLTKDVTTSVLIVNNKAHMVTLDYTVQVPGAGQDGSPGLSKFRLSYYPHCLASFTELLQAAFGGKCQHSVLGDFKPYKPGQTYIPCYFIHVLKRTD
UniProt P50135, whole entry: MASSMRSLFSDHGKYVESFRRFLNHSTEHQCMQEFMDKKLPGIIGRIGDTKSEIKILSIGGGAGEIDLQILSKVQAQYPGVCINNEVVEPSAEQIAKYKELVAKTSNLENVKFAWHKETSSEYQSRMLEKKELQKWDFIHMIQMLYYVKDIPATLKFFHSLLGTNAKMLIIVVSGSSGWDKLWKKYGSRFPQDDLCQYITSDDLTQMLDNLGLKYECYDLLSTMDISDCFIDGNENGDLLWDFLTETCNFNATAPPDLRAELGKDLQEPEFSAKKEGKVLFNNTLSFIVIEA
UniProt P40261, whole entry: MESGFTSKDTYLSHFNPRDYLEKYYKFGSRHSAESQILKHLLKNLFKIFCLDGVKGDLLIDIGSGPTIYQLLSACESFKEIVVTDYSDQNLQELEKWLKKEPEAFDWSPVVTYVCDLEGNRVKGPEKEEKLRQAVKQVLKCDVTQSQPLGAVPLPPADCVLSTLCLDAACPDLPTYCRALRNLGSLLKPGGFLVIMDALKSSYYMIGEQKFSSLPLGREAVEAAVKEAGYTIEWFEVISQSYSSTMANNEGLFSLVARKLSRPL
UniProt P11086, whole entry: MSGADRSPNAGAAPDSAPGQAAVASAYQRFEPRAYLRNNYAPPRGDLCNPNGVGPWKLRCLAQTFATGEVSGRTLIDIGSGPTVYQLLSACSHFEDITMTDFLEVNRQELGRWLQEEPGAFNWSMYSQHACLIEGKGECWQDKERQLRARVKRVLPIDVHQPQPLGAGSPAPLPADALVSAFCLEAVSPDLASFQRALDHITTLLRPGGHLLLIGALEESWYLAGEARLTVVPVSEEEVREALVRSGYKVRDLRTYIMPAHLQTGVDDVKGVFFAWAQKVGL

[2] = molecular target: Guanidinoacetate N-methyltransferase (Homo sapiens) (UniProt Q14353); conditions: purified enzyme, MTase-Glo SAH luminescence; measured here: GAMT inhibition; at 40 µM; stronger effect = lower value
Text: as §1, §2, §3, §4, §5, §6, §7, §8, §9, §10, §11, §12, §13, §14, §15, §16, §17, §18, §19, §20, §21, §22, §23
8. […]

[3] = molecular target: Histamine N-methyltransferase (Homo sapiens) (UniProt P50135); conditions: purified enzyme, MTase-Glo SAH luminescence; measured here: HNMT inhibition; at 40 µM; stronger effect = lower value
Text: as §1, §2, §3, §4, §5, §6, §7, §8, §9, §10, §11, §12, §13, §14, §15, §16, §17, §18, §19, §20, §21, §22, §23
8. […]

[4] = molecular target: Nicotinamide N-methyltransferase (Homo sapiens) (UniProt P40261); conditions: purified enzyme, MTase-Glo SAH luminescence; measured here: NNMT inhibition; at 40 µM; stronger effect = lower value
Text: as §1, §2, §3, §4, §5, §6, §7, §8, §9, §10, §11, §12, §13, §14, §15, §16, §17, §18, §19, §20, §21, §22, §23
8. […]

[5] = molecular target: Phenylethanolamine N-methyltransferase (Homo sapiens) (UniProt P11086); conditions: purified enzyme, MTase-Glo SAH luminescence; measured here: PNMT inhibition; at 40 µM; stronger effect = lower value
Text: as §1, §2, §3, §4, §5, §6, §7, §8, §9, §10, §11, §12, §13, §14, §15, §16, §17, §18, §19, §20, §21, §22, §23
8. […]
% is set by controls: 0 for no effect and ±100 for the full control effect.

SMILES	activity change, negative = inhibition [1] [%]	activity change, negative = inhibition [2] [%]	activity change, negative = inhibition [3] [%]	activity change, negative = inhibition [4] [%]	activity change, negative = inhibition [5] [%]
C/C1=C2N=C(/C=C3N=C(/C(C)=C4\N=C(C(CC(N)=O)C4(C)CCC(=O)NCC(C)OP(=O)([O-])OC4C(CO)OC(n5cnc6cc(C)c(C)cc65)C4O)C4(C)N=C1C(CCC(N)=O)C4(C)CC(N)=O)C(CCC(N)=O)C\3(C)C)C(CCC(N)=O)C/2(C)CC(N)=O.[C-]#N.[Co] (centres undefined)	-86.4	-28.5	-30.2	-33.8	-24.7
CN(C(=O)Cc1ccccc1)[C@@H]1CC[C@]2(CCCO2)C[C@H]1N1CCCC1	4.28	13.3	13.7	-5.73	-1.28
CCn1c(=O)n([C@@H]2CCN(CC3CCCCCCC3)C[C@H]2CO)c2ccccc21	-4.43	3.82	5.78	-18.1	-3.24
CN(C(=O)Cc1ccc(Cl)c(Cl)c1)[C@@H]1CC[C@]2(CCCO2)C[C@H]1N1CCCC1	1.57	12.3	-0.23	-7.26	7.79
CCOP(=O)(CC)Oc1ccc([N+](=O)[O-])cc1 (centres undefined)	-3.92	0.457	6.08	-10.6	-2.16
CN(C)C1(c2ccccc2)CCC2(CC1)OCCc1c2[nH]c2ccc(F)cc12 (centres undefined)	2.72	0.552	-8.59	-11.8	-2.52
N[C@@H](Cc1ccc([N+]([O-])(CCCl)CCCl)cc1)C(=O)O	1.33	–	7.4	-29.4	-15.9
O=C(O[C@H]1CN2CCC1CC2)C1NCc2ccccc2[C@@H]1c1ccccc1 (some centres undefined)	-5.32	-11.3	-12.7	-19.1	-11.2

From PubChem BioAssay AID1745853 (National Center for Advancing Translational Sciences (NCATS), 2022)
